Results as given in paper doi:10.1101/499962.
Results are given in words; binding and its absence hold for the method and conditions named.

Chains of the proteins cited; added tags and fusions are not shown.
UniProt P69441, whole entry: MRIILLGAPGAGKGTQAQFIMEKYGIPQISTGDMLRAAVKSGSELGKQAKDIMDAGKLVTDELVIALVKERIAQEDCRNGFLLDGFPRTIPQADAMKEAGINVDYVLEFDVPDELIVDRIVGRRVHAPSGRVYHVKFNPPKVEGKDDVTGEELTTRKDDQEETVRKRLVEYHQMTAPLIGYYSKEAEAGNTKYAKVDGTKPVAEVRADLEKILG

Molecular target: E. coli adenylate kinase (Adk), wild type (E. coli) (UniProt P69441)
Test: SEC

E. coli adenylate kinase (Adk), wild type (from UniProt P69441 1-214) (enzyme)
binding: no binding
